± gives the standard deviation of the averaged measurements. The entries are a selection whose mix differs from that of the whole data set.
Compound: Nc1ncnc2c1ncn2[C@@H]1O[C@H](COP(=O)(O)OP(=O)(O)OP(=O)(O)O)[C@@H](O)[C@H]1O [adenosine triphosphate]
Assay: NP40-soluble protein abundance relative to vehicle (solubility fold change) (ratio); higher = more soluble protein in presence of ATP
In short: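 Each value is a fold change relative to the detergent-processed vehicle, calculated per replicate from vsn-normalised intensities. Jurkat crude lysate received eight concentrations (0.1 to 10 mM) for 10 min at room temperature and 3 min at 37 °C, then was solubilised in 0.8% NP40 with benzonase (60 min, 4 °C). The ultracentrifuged supernatant was TMT-labelled and run by LC-MS/MS in three independent experiments.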

Chains of the proteins cited; added tags and fusions are not shown. Lines headed by an entry give the natural chain unless they say otherwise; changes in a name come on top.
UniProt Q9NU19: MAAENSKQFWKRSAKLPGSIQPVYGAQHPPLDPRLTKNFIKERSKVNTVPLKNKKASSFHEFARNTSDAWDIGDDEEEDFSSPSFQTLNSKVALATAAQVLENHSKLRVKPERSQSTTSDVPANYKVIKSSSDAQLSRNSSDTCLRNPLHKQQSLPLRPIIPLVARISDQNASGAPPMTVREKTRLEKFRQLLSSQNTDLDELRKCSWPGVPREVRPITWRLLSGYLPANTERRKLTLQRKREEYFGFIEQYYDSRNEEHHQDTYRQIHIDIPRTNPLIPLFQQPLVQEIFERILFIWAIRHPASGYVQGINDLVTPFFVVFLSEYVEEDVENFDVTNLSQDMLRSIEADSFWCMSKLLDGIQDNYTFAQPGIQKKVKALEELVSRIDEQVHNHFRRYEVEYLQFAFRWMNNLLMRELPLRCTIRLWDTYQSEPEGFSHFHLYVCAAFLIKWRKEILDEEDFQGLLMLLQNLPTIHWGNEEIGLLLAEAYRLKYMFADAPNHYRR
UniProt Q9NUY8: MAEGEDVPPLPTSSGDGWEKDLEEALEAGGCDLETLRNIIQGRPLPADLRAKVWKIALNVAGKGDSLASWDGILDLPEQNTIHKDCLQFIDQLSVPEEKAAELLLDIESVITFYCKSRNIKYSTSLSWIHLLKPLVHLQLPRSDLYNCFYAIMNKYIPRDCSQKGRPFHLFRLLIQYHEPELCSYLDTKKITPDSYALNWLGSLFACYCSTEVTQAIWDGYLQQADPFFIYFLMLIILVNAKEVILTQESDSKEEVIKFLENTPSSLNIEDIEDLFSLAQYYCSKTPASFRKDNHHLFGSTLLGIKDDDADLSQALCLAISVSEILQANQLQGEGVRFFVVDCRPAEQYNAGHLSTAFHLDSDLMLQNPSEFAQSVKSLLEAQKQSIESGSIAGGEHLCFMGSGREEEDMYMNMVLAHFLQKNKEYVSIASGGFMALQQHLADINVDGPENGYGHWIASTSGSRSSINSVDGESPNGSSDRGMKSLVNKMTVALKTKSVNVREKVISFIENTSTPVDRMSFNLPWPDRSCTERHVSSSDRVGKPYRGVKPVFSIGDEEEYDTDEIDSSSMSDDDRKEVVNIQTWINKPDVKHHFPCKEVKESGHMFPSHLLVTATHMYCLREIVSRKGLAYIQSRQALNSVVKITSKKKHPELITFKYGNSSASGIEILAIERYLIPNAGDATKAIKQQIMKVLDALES
UniProt Q9NWU2, whole entry: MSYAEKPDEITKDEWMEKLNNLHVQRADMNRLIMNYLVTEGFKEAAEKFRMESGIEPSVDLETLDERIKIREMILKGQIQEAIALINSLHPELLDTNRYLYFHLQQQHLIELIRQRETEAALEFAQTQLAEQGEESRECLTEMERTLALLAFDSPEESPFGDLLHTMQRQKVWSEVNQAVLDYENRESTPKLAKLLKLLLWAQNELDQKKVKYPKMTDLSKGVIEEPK
UniProt Q9NZB2: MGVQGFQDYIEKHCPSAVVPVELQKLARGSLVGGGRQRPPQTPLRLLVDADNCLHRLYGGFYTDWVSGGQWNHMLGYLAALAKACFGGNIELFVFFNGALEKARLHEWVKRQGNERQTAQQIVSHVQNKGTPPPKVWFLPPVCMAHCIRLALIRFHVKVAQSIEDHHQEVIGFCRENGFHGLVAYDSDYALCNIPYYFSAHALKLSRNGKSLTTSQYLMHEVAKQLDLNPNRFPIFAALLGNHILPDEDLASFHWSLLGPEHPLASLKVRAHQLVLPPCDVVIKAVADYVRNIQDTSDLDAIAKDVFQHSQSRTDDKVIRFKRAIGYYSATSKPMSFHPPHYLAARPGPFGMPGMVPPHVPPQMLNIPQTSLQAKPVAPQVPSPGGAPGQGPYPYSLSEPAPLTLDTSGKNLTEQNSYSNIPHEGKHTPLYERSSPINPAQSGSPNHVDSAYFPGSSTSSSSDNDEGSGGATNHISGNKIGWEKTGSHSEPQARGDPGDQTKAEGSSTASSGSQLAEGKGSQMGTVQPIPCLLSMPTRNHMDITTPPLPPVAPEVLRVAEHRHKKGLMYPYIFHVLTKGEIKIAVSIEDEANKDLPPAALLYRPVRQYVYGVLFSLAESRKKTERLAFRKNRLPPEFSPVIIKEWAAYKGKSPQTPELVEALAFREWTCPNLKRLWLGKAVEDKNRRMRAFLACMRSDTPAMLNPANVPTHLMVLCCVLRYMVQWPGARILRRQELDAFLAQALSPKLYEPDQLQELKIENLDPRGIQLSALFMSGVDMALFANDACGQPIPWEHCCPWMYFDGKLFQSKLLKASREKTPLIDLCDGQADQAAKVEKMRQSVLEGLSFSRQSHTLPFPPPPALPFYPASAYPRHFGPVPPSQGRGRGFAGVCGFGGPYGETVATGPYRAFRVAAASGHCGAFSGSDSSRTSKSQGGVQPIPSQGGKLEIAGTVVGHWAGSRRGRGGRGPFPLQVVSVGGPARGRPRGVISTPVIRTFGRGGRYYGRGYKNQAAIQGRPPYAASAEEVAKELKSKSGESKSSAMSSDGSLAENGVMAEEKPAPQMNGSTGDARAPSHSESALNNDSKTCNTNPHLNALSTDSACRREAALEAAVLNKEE
UniProt Q9NRA8: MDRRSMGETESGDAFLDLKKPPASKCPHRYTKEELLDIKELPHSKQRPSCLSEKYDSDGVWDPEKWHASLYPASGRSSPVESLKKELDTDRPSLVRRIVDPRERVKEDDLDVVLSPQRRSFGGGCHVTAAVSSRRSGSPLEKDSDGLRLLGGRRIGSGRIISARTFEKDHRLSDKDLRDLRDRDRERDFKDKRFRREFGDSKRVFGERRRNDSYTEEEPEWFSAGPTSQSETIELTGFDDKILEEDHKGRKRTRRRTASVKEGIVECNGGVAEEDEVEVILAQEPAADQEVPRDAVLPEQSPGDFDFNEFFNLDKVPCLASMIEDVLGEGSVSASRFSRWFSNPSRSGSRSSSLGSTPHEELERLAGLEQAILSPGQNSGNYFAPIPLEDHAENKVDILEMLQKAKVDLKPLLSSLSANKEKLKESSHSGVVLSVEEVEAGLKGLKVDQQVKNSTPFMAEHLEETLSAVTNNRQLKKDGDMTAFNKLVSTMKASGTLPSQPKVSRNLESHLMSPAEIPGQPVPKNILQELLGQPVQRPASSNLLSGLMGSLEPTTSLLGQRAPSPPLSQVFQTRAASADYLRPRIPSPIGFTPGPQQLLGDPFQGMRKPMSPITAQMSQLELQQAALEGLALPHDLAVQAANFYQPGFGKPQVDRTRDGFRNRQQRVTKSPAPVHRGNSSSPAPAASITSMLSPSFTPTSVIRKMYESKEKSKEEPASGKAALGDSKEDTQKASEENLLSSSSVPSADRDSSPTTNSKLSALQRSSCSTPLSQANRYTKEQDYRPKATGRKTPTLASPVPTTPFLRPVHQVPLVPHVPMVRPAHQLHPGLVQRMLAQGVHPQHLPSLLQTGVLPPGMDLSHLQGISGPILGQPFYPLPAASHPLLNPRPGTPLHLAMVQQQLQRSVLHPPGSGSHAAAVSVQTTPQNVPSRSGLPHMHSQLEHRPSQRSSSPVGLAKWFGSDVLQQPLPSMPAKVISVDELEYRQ
UniProt Q9NQT4, whole entry: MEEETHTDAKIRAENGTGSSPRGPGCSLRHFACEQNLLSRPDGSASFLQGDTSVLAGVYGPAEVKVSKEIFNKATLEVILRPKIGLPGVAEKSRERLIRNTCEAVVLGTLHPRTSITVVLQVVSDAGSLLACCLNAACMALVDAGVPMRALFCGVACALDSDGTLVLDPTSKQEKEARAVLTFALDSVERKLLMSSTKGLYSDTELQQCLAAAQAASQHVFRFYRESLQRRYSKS
UniProt Q9NVF7: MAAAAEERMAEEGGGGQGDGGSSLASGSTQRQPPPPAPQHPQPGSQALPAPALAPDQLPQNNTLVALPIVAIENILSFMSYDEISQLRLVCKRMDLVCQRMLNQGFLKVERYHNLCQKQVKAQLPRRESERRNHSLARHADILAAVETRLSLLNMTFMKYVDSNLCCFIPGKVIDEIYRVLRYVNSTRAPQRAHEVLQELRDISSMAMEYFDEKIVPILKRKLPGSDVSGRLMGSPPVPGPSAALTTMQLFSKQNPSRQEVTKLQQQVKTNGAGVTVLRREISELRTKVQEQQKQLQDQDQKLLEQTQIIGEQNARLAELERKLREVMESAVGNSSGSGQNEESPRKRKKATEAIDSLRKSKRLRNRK
UniProt Q9NUM4, whole entry: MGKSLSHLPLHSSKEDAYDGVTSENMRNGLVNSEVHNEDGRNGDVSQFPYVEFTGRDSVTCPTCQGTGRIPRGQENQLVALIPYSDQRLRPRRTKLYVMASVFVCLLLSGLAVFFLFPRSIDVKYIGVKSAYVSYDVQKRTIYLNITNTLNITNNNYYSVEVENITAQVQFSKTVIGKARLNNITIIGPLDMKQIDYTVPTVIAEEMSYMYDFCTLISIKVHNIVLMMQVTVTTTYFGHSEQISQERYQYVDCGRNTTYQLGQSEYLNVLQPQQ
UniProt Q9NYR9: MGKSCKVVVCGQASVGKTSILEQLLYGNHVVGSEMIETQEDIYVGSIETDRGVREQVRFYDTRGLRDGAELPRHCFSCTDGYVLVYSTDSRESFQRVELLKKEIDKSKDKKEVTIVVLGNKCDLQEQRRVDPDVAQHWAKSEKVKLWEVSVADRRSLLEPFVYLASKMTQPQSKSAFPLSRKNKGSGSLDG
UniProt Q9NV88, whole entry: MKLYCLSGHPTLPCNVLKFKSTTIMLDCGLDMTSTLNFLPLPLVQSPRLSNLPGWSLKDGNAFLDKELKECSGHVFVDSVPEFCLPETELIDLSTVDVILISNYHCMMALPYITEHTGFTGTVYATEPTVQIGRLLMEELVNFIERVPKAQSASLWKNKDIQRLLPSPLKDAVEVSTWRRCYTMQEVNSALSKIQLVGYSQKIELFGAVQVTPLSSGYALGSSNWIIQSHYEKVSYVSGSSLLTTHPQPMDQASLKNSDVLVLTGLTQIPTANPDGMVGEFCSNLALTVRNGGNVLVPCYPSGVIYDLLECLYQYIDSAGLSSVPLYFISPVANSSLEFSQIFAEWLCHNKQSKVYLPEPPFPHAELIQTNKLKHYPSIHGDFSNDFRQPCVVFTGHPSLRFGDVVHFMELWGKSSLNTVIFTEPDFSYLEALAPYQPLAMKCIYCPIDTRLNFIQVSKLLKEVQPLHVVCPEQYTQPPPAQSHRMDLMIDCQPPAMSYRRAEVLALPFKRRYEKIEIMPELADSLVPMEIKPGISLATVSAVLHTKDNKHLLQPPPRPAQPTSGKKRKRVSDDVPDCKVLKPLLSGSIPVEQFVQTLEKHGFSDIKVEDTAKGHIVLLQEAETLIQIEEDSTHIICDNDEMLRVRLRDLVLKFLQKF
UniProt Q9NRP2: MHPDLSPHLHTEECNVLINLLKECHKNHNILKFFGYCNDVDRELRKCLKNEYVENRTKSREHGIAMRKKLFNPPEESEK
UniProt Q9NSI2: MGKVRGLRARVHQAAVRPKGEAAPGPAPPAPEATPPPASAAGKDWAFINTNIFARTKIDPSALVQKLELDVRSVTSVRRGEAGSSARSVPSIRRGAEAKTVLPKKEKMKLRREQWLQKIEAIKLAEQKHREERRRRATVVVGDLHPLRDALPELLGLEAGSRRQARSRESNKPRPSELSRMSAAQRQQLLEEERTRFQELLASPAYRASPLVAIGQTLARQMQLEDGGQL
UniProt Q9NXR7, whole entry: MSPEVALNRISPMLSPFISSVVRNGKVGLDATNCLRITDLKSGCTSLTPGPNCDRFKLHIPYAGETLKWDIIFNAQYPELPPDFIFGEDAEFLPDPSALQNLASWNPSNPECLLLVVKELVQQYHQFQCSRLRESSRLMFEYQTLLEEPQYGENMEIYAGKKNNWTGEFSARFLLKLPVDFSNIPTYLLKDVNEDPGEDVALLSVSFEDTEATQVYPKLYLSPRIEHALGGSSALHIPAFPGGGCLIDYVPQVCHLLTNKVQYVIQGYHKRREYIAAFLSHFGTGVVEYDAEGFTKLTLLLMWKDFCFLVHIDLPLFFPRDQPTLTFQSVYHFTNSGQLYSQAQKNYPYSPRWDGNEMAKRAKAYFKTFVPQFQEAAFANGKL

TBC1D22B (UniProt Q9NU19)
NP40-soluble protein abundance (concentration: 1mM): 1.01 ± 0.018
NP40-soluble protein abundance (concentration: 2mM): 1.04 ± 0.032
NP40-soluble protein abundance (concentration: 4mM): 1.01 ± 0.043
NP40-soluble protein abundance (concentration: 6mM): 1.02 ± 0.046
NP40-soluble protein abundance (concentration: 8mM): 0.984 ± 0.023
NP40-soluble protein abundance (concentration: 10mM): 1.02 ± 0.053

UniProt Q9NUY8 and related entries
NP40-soluble protein abundance (concentration: 1mM): 0.968 ± 0.011
NP40-soluble protein abundance (concentration: 2mM): 1.03 ± 0.025
NP40-soluble protein abundance (concentration: 4mM): 0.961 ± 0.037
NP40-soluble protein abundance (concentration: 6mM): 1 ± 0.029
NP40-soluble protein abundance (concentration: 8mM): 0.957 ± 0.051
NP40-soluble protein abundance (concentration: 10mM): 0.98 ± 0.042

UniProt Q9NWU2
NP40-soluble protein abundance (concentration: 1mM): 0.926 ± 0.12
NP40-soluble protein abundance (concentration: 2mM): 0.823 ± 0.17
NP40-soluble protein abundance (concentration: 4mM): 0.805 ± 0.068
NP40-soluble protein abundance (concentration: 6mM): 0.872 ± 0.18
NP40-soluble protein abundance (concentration: 8mM): 0.886 ± 0.067
NP40-soluble protein abundance (concentration: 10mM): 0.731 ± 0.13

UniProt Q9NZB2 and related entries
NP40-soluble protein abundance (concentration: 1mM): 1.05 ± 0.038
NP40-soluble protein abundance (concentration: 2mM): 1.01 ± 0.035
NP40-soluble protein abundance (concentration: 4mM): 1.04 ± 0.05
NP40-soluble protein abundance (concentration: 6mM): 1.08 ± 0.088
NP40-soluble protein abundance (concentration: 8mM): 1.12 ± 0.055
NP40-soluble protein abundance (concentration: 10mM): 1.15 ± 0.075

UniProt Q9NRA8 and related entries
NP40-soluble protein abundance (concentration: 1mM): 1.01 ± 0.075
NP40-soluble protein abundance (concentration: 2mM): 1 ± 0.077
NP40-soluble protein abundance (concentration: 4mM): 1.04 ± 0.038
NP40-soluble protein abundance (concentration: 6mM): 1.07 ± 0.092
NP40-soluble protein abundance (concentration: 8mM): 1.01 ± 0.019
NP40-soluble protein abundance (concentration: 10mM): 1.05 ± 0.056

EXOSC5 (UniProt Q9NQT4)
NP40-soluble protein abundance (concentration: 1mM): 1.09 ± 0.049
NP40-soluble protein abundance (concentration: 2mM): 1.1 ± 0.041
NP40-soluble protein abundance (concentration: 4mM): 1.15 ± 0.1
NP40-soluble protein abundance (concentration: 6mM): 1.19 ± 0.073
NP40-soluble protein abundance (concentration: 8mM): 1.24 ± 0.086
NP40-soluble protein abundance (concentration: 10mM): 1.27 ± 0.097

FBXO28 (UniProt Q9NVF7)
NP40-soluble protein abundance (concentration: 1mM): 1.28 ± 0.019
NP40-soluble protein abundance (concentration: 2mM): 1.31 ± 0.1
NP40-soluble protein abundance (concentration: 4mM): 1.37 ± 0.12
NP40-soluble protein abundance (concentration: 6mM): 1.44 ± 0.22
NP40-soluble protein abundance (concentration: 8mM): 1.44 ± 0.14
NP40-soluble protein abundance (concentration: 10mM): 1.32 ± 0.01

TMEM106B (UniProt Q9NUM4)
NP40-soluble protein abundance (concentration: 1mM): 0.909 ± 0.11
NP40-soluble protein abundance (concentration: 2mM): 1.01 ± 0.067
NP40-soluble protein abundance (concentration: 4mM): 1.03 ± 0.061
NP40-soluble protein abundance (concentration: 6mM): 0.97 ± 0.087
NP40-soluble protein abundance (concentration: 8mM): 0.943 ± 0.055
NP40-soluble protein abundance (concentration: 10mM): 0.96 ± 0.052

UniProt Q9NYR9 and related entries
NP40-soluble protein abundance (concentration: 1mM): 1.105 ± 0.0076
NP40-soluble protein abundance (concentration: 2mM): 1.13 ± 0.031
NP40-soluble protein abundance (concentration: 4mM): 1.11 ± 0.041
NP40-soluble protein abundance (concentration: 6mM): 1.12 ± 0.055
NP40-soluble protein abundance (concentration: 8mM): 1.067 ± 0.0084
NP40-soluble protein abundance (concentration: 10mM): 1.08 ± 0.011

LYAR (UniProt Q9NX58)
NP40-soluble protein abundance (concentration: 1mM): 0.976 ± 0.07
NP40-soluble protein abundance (concentration: 2mM): 0.981 ± 0.092
NP40-soluble protein abundance (concentration: 4mM): 1.07 ± 0.049
NP40-soluble protein abundance (concentration: 6mM): 1.1 ± 0.026
NP40-soluble protein abundance (concentration: 8mM): 1.07 ± 0.035
NP40-soluble protein abundance (concentration: 10mM): 1.25 ± 0.028

UniProt Q9NV88 and related entries
NP40-soluble protein abundance (concentration: 1mM): 1.05 ± 0.067
NP40-soluble protein abundance (concentration: 2mM): 1.04 ± 0.046
NP40-soluble protein abundance (concentration: 4mM): 1.03 ± 0.052
NP40-soluble protein abundance (concentration: 6mM): 1.05 ± 0.024
NP40-soluble protein abundance (concentration: 8mM): 1.11 ± 0.022
NP40-soluble protein abundance (concentration: 10mM): 1.08 ± 0.057

UniProt Q9NRP2
NP40-soluble protein abundance (concentration: 1mM): 0.992 ± 0.26
NP40-soluble protein abundance (concentration: 2mM): 0.906 ± 0.16
NP40-soluble protein abundance (concentration: 4mM): 0.933 ± 0.15
NP40-soluble protein abundance (concentration: 6mM): 0.969 ± 0.16
NP40-soluble protein abundance (concentration: 8mM): 0.831 ± 0.16
NP40-soluble protein abundance (concentration: 10mM): 0.796 ± 0.18

UniProt Q9NSI2 and related entries
NP40-soluble protein abundance (concentration: 1mM): 1.02 ± 0.045
NP40-soluble protein abundance (concentration: 2mM): 0.935 ± 0.018
NP40-soluble protein abundance (concentration: 4mM): 0.91 ± 0.08
NP40-soluble protein abundance (concentration: 6mM): 0.873 ± 0.066
NP40-soluble protein abundance (concentration: 8mM): 0.882 ± 0.038
NP40-soluble protein abundance (concentration: 10mM): 0.884 ± 0.063

FASTKD2 (UniProt Q9NYY8)
NP40-soluble protein abundance (concentration: 1mM): 0.99 ± 0.034
NP40-soluble protein abundance (concentration: 2mM): 0.982 ± 0.076
NP40-soluble protein abundance (concentration: 4mM): 0.99 ± 0.027
NP40-soluble protein abundance (concentration: 6mM): 0.955 ± 0.053
NP40-soluble protein abundance (concentration: 8mM): 0.996 ± 0.096
NP40-soluble protein abundance (concentration: 10mM): 0.97 ± 0.057

UniProt Q9NXR7
NP40-soluble protein abundance (concentration: 1mM): 0.991 ± 0.022
NP40-soluble protein abundance (concentration: 2mM): 0.998 ± 0.029
NP40-soluble protein abundance (concentration: 4mM): 0.979 ± 0.036
NP40-soluble protein abundance (concentration: 6mM): 0.973 ± 0.022
NP40-soluble protein abundance (concentration: 8mM): 0.992 ± 0.067
NP40-soluble protein abundance (concentration: 10mM): 0.987 ± 0.05

Reference: the supplement of paper PMC6411743
